Reference: patent US20060257406A1 (published 2006)
No constants are given. Whether binding was seen depends on the method and setting. A result given as binding can be weak or reduced; the word gives no strength.

Sequences of proteins named here, by UniProt entry; tags and fusion partners are left off. A change or cut given only in a name is not applied to a line headed by its entry.
UniProt P19438: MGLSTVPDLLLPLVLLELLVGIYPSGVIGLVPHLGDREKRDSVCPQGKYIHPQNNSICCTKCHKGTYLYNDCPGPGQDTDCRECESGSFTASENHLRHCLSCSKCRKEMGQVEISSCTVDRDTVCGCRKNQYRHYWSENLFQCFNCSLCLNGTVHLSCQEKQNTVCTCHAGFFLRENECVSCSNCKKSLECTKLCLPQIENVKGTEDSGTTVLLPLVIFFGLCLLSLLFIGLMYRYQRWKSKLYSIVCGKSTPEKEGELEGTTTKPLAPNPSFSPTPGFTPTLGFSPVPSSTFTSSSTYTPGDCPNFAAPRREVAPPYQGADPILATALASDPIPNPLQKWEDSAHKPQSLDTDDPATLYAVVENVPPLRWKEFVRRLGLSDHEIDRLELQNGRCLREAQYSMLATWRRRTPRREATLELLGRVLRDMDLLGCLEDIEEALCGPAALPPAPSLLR

Target: human p55 TNF receptor (human) (UniProt P19438)
Assay: selection from a dAb library

B1: TAR2h-5 (protein)
VH: EVQLLESGGGLVQPGGSLRLSCAASGFTFDLYNMFWVRQAPGKGLEWVSFISQTGRLTWYADSVKGRFTISRDNSKNTLYLQMNSLRAEDTAVYYCAKTLEDFDYWGQGTLVTVSS
**Q.** With B1 as the binder, how does the binding read?
**A.** binds
